Values of other authors in patent publication US20250352554A1 (Neurelis, Inc., priority 2024, published 2025).
At least one structure is not confirmed: it was looked up by name or label, or the drawing left a doubt.

Conditions: cited from earlier work

## CCCCCCCCCCCCO[C@@H]1O[C@H](CO)[C@@H](O[C@H]2O[C@H](CO)[C@@H](O)[C@H](O)[C@H]2O)[C@H](O)[C@H]1O [dodecyl maltoside]
  irritation of the nose: generally nonirritating to the nose
